Some results were stated once for a whole list of compounds, not compound by compound. At least one structure is not confirmed: it was looked up by name or label, or the drawing left a doubt.
Columns and labels:
[1] = system: Lactobacterium; assay: Stimulation of growth: enumeration of lactobacilli in vitro in human faecal homogenate / WC broth; format: cell-based, Lactobacillus spp; conditions: 1% b.w., control 2.8 10^5 CFU/ml
Method: (§1) The stimulation of growth of micro-organisms has been studied by enumerating bifidobacterium and lactobacilli in vitro in the presence of various test substances. More specifically, aliquots (1 mL) of human faecal homogenates (10 g per 100 mL diluent) were added to diluted WC broth (diluted 50:50 with 0.05M phosphate buffer) to which were added the test mixtures and a lactobacillus or bifidobacterium strain. For each of the combinations, parallel tubes were prepared with one set being inoculated with Bifidobacterium spp or Lactobacillus spp. All mixtures were then incubated for up to 24 hours and bacterial numbers enumerated.

[2] = system: Bifidobacterium; assay: Stimulation of growth: enumeration of bifidobacterium in vitro in human faecal homogenate / WC broth; format: cell-based, Bifidobacterium spp; conditions: 1% b.w., control 1.0 10^6 CFU/ml
Method: as §1

CC[C@H](CC[C@@H](C)[C@H]1CC[C@H]2[C@@H]3CC=C4C[C@@H](O)CC[C@]4(C)[C@H]3CC[C@]12C)C(C)C [C5, β-Sitosterol]
effect on the stimulation of cell growth [1]: weak effect
effect on the stimulation of cell growth [2]: weak effect

Reference: patent publication US20080241263A1, “Oral and/or Topical Compositions Comprising Prebiotics and Sterols” (priority 2004, published 2008)
